Test results published in PubChem BioAssay AID540276 (National Center for Advancing Translational Sciences (NCATS), 2011).
“And” between values parts separate entries of the source, which are not always exact repeats. Identical values can stand only once. The campaign covered roughly 300,000 compounds. About 5,400 (1.8%) were called active. The inconclusive results got no clear call from the source; some entries with a clear call stand among them for comparison. Calls follow the shape of the full dose curve; tested in HEK293 cells. Potencies beside an inconclusive call are fits to weak or partial responses and may not hold up.

Assay: qHTS for inhibitors of binding or entry into cells for Marburg Virus
Conditions: Marburg virus pseudotyped entry inhibition, cell reporter; activity change, negative = inhibition: at 37.8 µM (top of the series) unless noted
% is scaled to controls: 0 for no effect and ±100 for the full control effect; potency is read from the fitted curve at half-maximal effect.

| Compound | Potency | activity change, negative = inhibition |
| --- | --- | --- |
| CCOc1nc(-c2ccccc2)ccc1-c1noc(-c2ccco2)n1 | inconclusive: 29.1 µM [inhibitor, single point] |  |
| O=S(=O)(c1ccccc1)N(Cc1ccc(Cl)cc1)c1ccncc1 | inconclusive: 2.82 µM [inhibitor, single point] |  |
| O=C(N/N=C/c1ccco1)Nc1ccccc1 | inconclusive: 1.26 µM [activator, single point] |  |
| CCOC(=O)C(C)Oc1cccc2c(=O)n(CC(=O)NCc3ccccc3)ccc12 (stereo unspecified) | inconclusive: 1.26 µM [inhibitor, partial curve, poor fit] |  |
| CCOc1ccc(/C(O)=C/C(=O)C(=O)Nc2ccc(S(=O)(=O)NC(C)=O)cc2)cc1 | inconclusive: 35.5 µM [inhibitor, single point] |  |
| O=C1COc2ccc(C(=O)COC(=O)CNC(=O)C3CCCCC3)cc2N1 | inconclusive: 35.5 µM [activator, single point] |  |
| Cc1c2c(cc3c1[nH]c1ccccc13)C=NCC2 | inconclusive: 11.2 µM [inhibitor, partial curve, poor fit] |  |
| CCOC(=O)C(=CNc1ccccc1N1CCOCC1)C(=O)OCC |  | inactive: -9.14% [at 46.1 µM] |
| O=C(Nc1cc(-c2nc3ccccc3o2)ccc1Cl)c1ccc(N2CCCCC2)c([N+](=O)[O-])c1 | inconclusive: 10 µM [activator, partial curve, poor fit] |  |
| CN(C)c1ccc(-c2nnn(CC(=O)NCc3ccc4c(c3)OCO4)n2)cc1 | inconclusive: 35.5 µM [inhibitor, single point] |  |
| COc1cc(OC)cc(C(=O)Nc2nnc(NC(=S)Nc3ccccc3)s2)c1 | inconclusive: 5.62 µM [inhibitor, partial curve, poor fit] |  |
| COC(=O)C1=C(C)N(Cc2ccccc2)C(=O)N[C@H]1c1ccccc1 | inconclusive: 5.31 µM [inhibitor, single point] |  |
| CCn1c(=O)sc2cc(NS(=O)(=O)c3ccc(F)c(C)c3)ccc21 | inconclusive: 28.2 µM [inhibitor, single point] |  |
| CCOc1ccc(Nc2oc(-c3ccc(Cl)cc3)nc2C#N)cc1 | active: 7.3 µM |  |
| NS(=O)(=O)c1ccc(N/N=C/c2cn(-c3ccccc3)nc2-c2cccs2)c([N+](=O)[O-])c1 | active: 10 µM |  |
| Cc1cc2c(N=O)c(NO)ccc2[nH]1 | active: 1.41 µM |  |
| CN(C(=O)c1cc2nc(-c3ccco3)cc(C(F)(F)F)n2n1)c1ccc(OC(F)(F)Cl)cc1 |  | inactive: 6.43% [at 46.1 µM] |
| COc1cccc(-c2ccc(NC(=O)C3CCCN(CCCn4cccn4)C3)cc2)c1 (stereo unspecified) | inconclusive: 35.5 µM [inhibitor, single point] |  |
| O=C(O)/C=C/C(=O)c1ccc2c(c1)NC(=O)CO2 | inconclusive: 3.98 µM [inhibitor, single point] |  |
| Cc1cc(C)cc(C(=O)OCC(=O)NCc2cccs2)c1 |  | inactive: -6.2% |
| CC1(OC(=O)c2ccc(Cl)nc2)C(=O)C=C2C=C3CCCN3C=C2C1=O (stereo unspecified) | inactive |  |
| CSc1nc(N(C)NC(=O)c2cccc(C)c2)c2ccccc2n1 | inconclusive: 0.1 µM [inhibitor, full curve, poor fit] |  |

| Compound | Potency | activity change, negative = inhibition |
| --- | --- | --- |
| CC(C)OCCCNC(=O)c1ccc2c(c1)NC(=O)c1ccccc1S2 | inconclusive: 7.08 µM [inhibitor, partial curve, poor fit] and inconclusive: 3.98 µM [inhibitor, partial curve] |  |
| CCOc1ccc(-c2nnc3sc(COc4ccc(C)cc4)nn23)cc1 |  | inactive: 7.27% [at 46.1 µM] |
| O=C(CSc1nc(=O)[nH]c2c1CCCC2)Nc1cc(C(F)(F)F)cc(C(F)(F)F)c1 |  | inactive: -1.58% |
| Cc1cccc(C(=O)N(Cc2ccco2)c2c(N)n(Cc3ccccc3)c(=O)[nH]c2=O)c1 | inconclusive: 0.562 µM [inhibitor, full curve] |  |
| COc1ccc(OCc2ccc(-c3nc4ccccc4c(=O)n3N)o2)cc1 | inconclusive: 8.91 µM [inhibitor, partial curve] |  |
| Cc1ccnc2c(N3C(=O)C4C5c6ccccc6C(c6ccccc65)C4C3=O)cccc12 (stereo unspecified) | inconclusive: 13 µM [inhibitor, partial curve, poor fit] |  |
| Cc1nn2c(-c3ccncc3)ccnc2c1Br | inconclusive: 35.5 µM [inhibitor, single point] |  |
| CCOC(=O)c1ccc(N2C(=O)c3[nH]nc(-c4ccc(C)cc4)c3C2c2cccc(F)c2)cc1 (stereo unspecified) | inconclusive: 2.82 µM [inhibitor, partial curve, poor fit] |  |
| O=c1nccc(N/N=C/c2ccccc2O)[nH]1 | active: 5.62 µM |  |
| COc1ccccc1N1CCN(C(=O)c2ccc3[nH]c4c(c3c2)CCCC4)CC1 | inconclusive: 35.5 µM [inhibitor, single point] |  |
| Cc1ccc(C)c(-c2cc(C(=O)NN3CCOCC3)c3ccccc3n2)c1 | inconclusive: 31.6 µM [activator, single point] |  |
| Cc1nnc(SCc2cnc(-c3ccc(C(C)C)cc3)s2)n1C |  | inactive: 3.97% |
| CCC(=O)c1ccc(OCC(=O)N2CCN(CC(=O)Nc3ccccc3C(F)(F)F)CC2)cc1 | inconclusive: 2.51 µM [inhibitor, full curve, poor fit] |  |
| Cc1cccc(N)c1SC1CCCCC1O (stereo unspecified) | inconclusive: 6.31 µM [inhibitor, single point] |  |
| CC(C)C(=O)NC(c1ccc([N+](=O)[O-])cc1)c1c(O)ccc2ccccc12 (stereo unspecified) |  | inactive: 6.45% |
| O=C(NCc1ccccc1)NC(=O)c1ccc(Cl)cc1 | inconclusive: 5.62 µM [activator, single point] |  |
| CN(C)C1(c2nnnn2CCOC(=O)Nc2ccc(Cl)cc2)CCCCC1 | inconclusive: 15.8 µM [inhibitor, single point] |  |
| NC(N)=NN=C1c2ccccc2-c2ccccc21 | inconclusive: 3.55 µM [inhibitor, single point] |  |
| CC(C)NC[C@@H](O)COc1ccc(COCCOC(C)C)cc1 | inconclusive: 4.61 µM [activator, single point] |  |
| CC1CCC2(CC1)NC(=O)N(CC(=O)N1c3ccccc3CC1C)C2=O (stereo unspecified) |  | inactive: 14.9% |
| CN(c1ccccc1)S(=O)(=O)c1cc(C(=O)Nc2nc3ccccc3[nH]2)ccc1Cl | inconclusive: 35.5 µM [inhibitor, single point] |  |
| O=C(/C=C\c1ccc2c(c1)OCO2)CC1(O)C(=O)Nc2ccccc21 (stereo unspecified) | inconclusive: 35.5 µM [inhibitor, single point] |  |

| Compound | Potency | activity change, negative = inhibition |
| --- | --- | --- |
| CCOC(=O)c1ccccc1NC(=S)N1CCC(N2CCCCC2)CC1 | inconclusive: 2.06 µM [activator, partial curve, poor fit] |  |
| O=C(C1CC1)N1N=C(c2ccc(F)cc2)CC1(O)C(F)(F)F (stereo unspecified) |  | inactive: 10.7% |
| CN(C)CCCN(C(=O)COc1ccccc1)c1nc2ccc(Cl)cc2s1 | inconclusive: 22.4 µM [inhibitor, single point] |  |
| Cc1cc2oc(C(=O)Nc3ccc(S(N)(=O)=O)cc3)cc(=O)c2cc1C |  | inactive: -12.6% [at 46.1 µM] |
| O=C(CCC(=O)N1CCN(c2ccccn2)CC1)Nc1nnc(C(F)(F)F)s1 | inconclusive: 6.31 µM [inhibitor, single point] |  |
| Nc1cc(N)nc(SCC(=O)c2ccc3c(c2)NC(=O)CO3)n1 | inconclusive: 3.16 µM [inhibitor, single point] |  |
| O=C(c1cc2ccccc2oc1=O)N1CCN(c2ccc(Cl)cc2)CC1 |  | inactive: 8.95% [at 46.1 µM] |
| O=C(CCCNS(=O)(=O)c1ccccc1)NCc1ccco1 | inconclusive: 4.61 µM [inhibitor, single point] |  |
| O=C(CSc1nnnn1-c1ccccc1)Nc1ncc2c(n1)CC(c1ccccc1)CC2=O (stereo unspecified) | inconclusive: 32.6 µM [inhibitor, single point] |  |
| CCc1ccc(C(=O)c2cn(CC(=O)Nc3cccc(OC)c3)c3ccc(OC)cc3c2=O)cc1 | inconclusive: 10 µM [inhibitor, partial curve, poor fit] |  |
| CCOC(=O)c1cnn2c(C)cc(-c3ccc(F)cc3)nc12 |  | inactive: -13% [at 46.1 µM] |
| Cc1ccc(S(=O)(=O)NC(N)=NCCc2ccc(Cl)cc2)cc1C | inconclusive: 29.1 µM [inhibitor, single point] |  |
| O=C(CCC(=O)Nc1ccccc1)NNC(=O)COc1ccccc1 | inconclusive: 1.26 µM [inhibitor, single point] |  |
| CCOc1cc(Br)ccc1S(=O)(=O)NCc1ccccc1 |  | inactive: 2.29% |
| CCCCOc1ccc(-c2nn(-c3ccccc3)cc2C2NC(=O)NC(C)=C2C(=O)OCC)cc1 (stereo unspecified) | inconclusive: 0.501 µM [inhibitor, full curve, poor fit] |  |
| O=C(CSc1nnc(-c2ccccn2)o1)Nc1ccccc1C(F)(F)F | inconclusive: 2.82 µM [activator, partial curve, poor fit] |  |
| CC(=O)N1c2c(cc(Br)cc2S(=O)(=O)N2CCOCC2)CC1C (stereo unspecified) | inconclusive: 7.08 µM [activator, partial curve, poor fit] |  |
| O=C(Nc1ccc(Br)cc1)c1ccc(F)c(S(=O)(=O)NCc2cccs2)c1 | inconclusive: 6.31 µM [inhibitor, partial curve, poor fit] |  |
| CCCN(CCC)CC(=O)Nc1cccc2c1OCO2 |  | inactive: 3.84% |
| COC(=O)c1[nH]c2ccc(C)cc2c1NS(=O)(=O)c1ccc(F)cc1 | inconclusive: 1.26 µM [activator, single point] |  |
| CCN(c1ccccc1)S(=O)(=O)c1cc(C(=O)Nc2ccc(F)c(F)c2)ccc1F | inconclusive: 8.91 µM [inhibitor, partial curve, poor fit] |  |
| O=C(NN(Cc1ccccc1)Cc1ccccc1)c1ccccc1 | inconclusive: 0.562 µM [inhibitor, full curve, poor fit] |  |
